The record followed here is the supplement of paper PMC8090911.

Structures can show the parent of a compound that is named as a salt. This is one part of the list. Single values are uncertain, as repeats are few or missing.

For the test, the system named is p95-ErbB2-MCF7. Nature of the test: perinuclear lysosome accumulation (PNLA, size of LAMP2 puncta), robust Z-score vs plate median; higher = more perinuclear lysosome accumulation (reversal of invasive lysosome distribution). As to conditions: 5 µM; 24 h.
Turning to `CC1=C(/C=C/C(C)=C/C=C/C(C)=C\C(=O)O)C(C)(C)CCC1` [Isotretinoin], the perinuclear lysosome accumulation is -0.998. The value for `CC/C(=C(/CC)c1ccc(O)cc1)c1ccc(O)cc1` [Diethylstilbestrol] was 0.824; that for `Cc1cc(-c2ccccc2)nnc1NCCN1CCOCC1` [Minaprine dihydrochloride] was -1.77. The value for `NC(N)=Nc1nc(CSCC/C(N)=N/S(N)(=O)=O)cs1` [Famotidine] was 1.18; that for `COc1cc(-c2ccc(=O)[nH]n2)ccc1OC(F)F` [Zardaverine] was -0.398; that for `COc1cc(NC(C)CCCN)c2ncccc2c1` (centres undefined) [Primaquine diphosphate] was 1.91. The value for `CCCCC1(COC(=O)CCC(=O)O)C(=O)N(c2ccccc2)N(c2ccccc2)C1=O` [Suxibuzone] was -0.272; that for `CCCCNc1c(C(=O)OCC)c(C)nc2c1cnn2CC` [Tracazolate hydrochloride] was 0.315. As to `C[C@]12CC[C@@H]3c4ccc(OS(=O)(=O)O)cc4CC[C@H]3[C@@H]1CCC2=O` [Estropipate], the perinuclear lysosome accumulation is -1.34. With `Cc1ccc(S(=O)(=O)NC(=O)NN2CCCCCC2)cc1` [Tolazamide] the figure was -1.21; with `OC(CCCN1CCCCC1)(c1ccccc1)c1ccccc1` [Diphenidol hydrochloride], 1.48; with `CCN(CC)CCOC(=O)C(c1ccccc1)c1ccccc1` [Adiphenine hydrochloride], -4.57. With `CCOC(=O)c1ccc(N)cc1` [Benzocaine] the figure was -0.798; with `CNC(C)CCC=C(C)C` (centres undefined) [Isometheptene mucate], -1.14.

As for `O=C(COc1ccc(Cl)cc1)N1CCN(Cc2ccc3c(c2)OCO3)CC1` [Fipexide hydrochloride], the perinuclear lysosome accumulation was -0.812.

For `CN(Cc1cnc2nc(N)nc(N)c2n1)c1ccc(C(=O)N[C@@H](CCC(=O)O)C(=O)O)cc1` (racemic) [Amethopterin (R,S)], the perinuclear lysosome accumulation was determined as 1.25. For `CN(Cc1cnc2nc(N)nc(N)c2n1)c1ccc(C(=O)N[C@@H](CCC(=O)O)C(=O)O)cc1` [Methotrexate], the perinuclear lysosome accumulation stood at 2.77. On to `CCN(CC)CCNc1ccc(CO)c2sc3ccccc3c(=O)c12` [Hycanthone], for which the perinuclear lysosome accumulation was determined as 1.91. The value for `CN(C)c1ccc(O)c2c1C[C@H]1C[C@H]3[C@H](N(C)C)C(O)=C(C(N)=O)C(=O)[C@@]3(O)C(O)=C1C2=O` [Minocycline hydrochloride] was 2.22. With `Cc1ccsc1/C=C/C1=NCCCN1C` [Morantel tartrate] the figure was -1.6; with `CN(C)CCCN1c2ccccc2Sc2ccc(Cl)cc21` [Chlorpromazine hydrochloride], 2.54. In the case of `CCOc1ccccc1OC(c1ccccc1)C1CNCCO1` (centres undefined) [Reboxetine mesylate], the perinuclear lysosome accumulation is -0.823. The value for `Nc1ccc(S(=O)(=O)Nc2ccccn2)cc1` [Sulfapyridine] was -0.743. Regarding `Nc1ccn([C@@H]2O[C@H](CO)[C@@H](O)[C@@H]2O)c(=O)n1` [Cytarabine], the perinuclear lysosome accumulation was 0.916. With `CC(COc1ccccc1)NC(C)C(O)c1ccc(O)cc1` (centres undefined) [Isoxsuprine hydrochloride] the figure was 0.298; with `CCOC(=O)NNc1nncc2ccccc12` [Todralazine hydrochloride], 0.5; with `CCCCN1CCCCC1C(=O)Nc1c(C)cccc1C` (centres undefined) [Bupivacaine hydrochloride], 1.27. The value for `CC(=O)[C@H]1CC[C@H]2[C@@H]3CC=C4C[C@@H](O)CC[C@]4(C)[C@H]3CC[C@]12C` [Pregnenolone] was 3.62; that for `COc1ccc(CC2c3cc(OC)c(OC)cc3CC[N+]2(C)CCC(=O)OCCCCCOC(=O)CC[N+]2(C)CCc3cc(OC)c(OC)cc3C2Cc2ccc(OC)c(OC)c2)cc1OC` (centres undefined) [Atracurium besylate] was -1.3.
